# The supplement of paper PMC3334620
# The full ranking holds about 33,000 sequences; the median of “E-score (-0.5 to 0.5)” is about -0.0034, and the highest 2% start at about 0.25. This is one part of the list.
# Target: T1, Yap3 (UniProt P38749)
# T1 sequence: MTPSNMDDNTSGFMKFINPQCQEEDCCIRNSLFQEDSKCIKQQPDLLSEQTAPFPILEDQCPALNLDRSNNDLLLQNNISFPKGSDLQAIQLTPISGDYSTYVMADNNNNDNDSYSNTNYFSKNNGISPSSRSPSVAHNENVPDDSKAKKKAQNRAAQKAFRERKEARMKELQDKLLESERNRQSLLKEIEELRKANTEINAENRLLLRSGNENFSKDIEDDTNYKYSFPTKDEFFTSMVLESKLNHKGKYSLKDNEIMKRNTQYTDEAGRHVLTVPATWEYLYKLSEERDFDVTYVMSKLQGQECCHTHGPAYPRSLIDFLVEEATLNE
# Experiment: PBM E-score (8-mer binding enrichment) (E-score (-0.5 to 0.5)); higher = stronger / more preferred TF binding
# Conditions: protein concentration: 100 nM; construct: GST-full length
# Outline: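 Detection of bound protein used fluorescent anti-GST, with scans normalised by masliner. The proteins were GST-tagged yeast transcription factors applied at about 100-200 nM to universal all-10-mer Agilent arrays made double-stranded by primer extension. Each ungapped eight-base word, pooled with its reverse complement, was scored with an E-score from the Universal PBM Analysis Suite.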
row,Sequence,PBM E-score
1,AGCAGCGA,0.0396
2,ACGACATA,-0.0021
3,CTTAATCA,0.166
4,AAACGGGT,0.019
5,GTAAGGGA,-0.00155
6,GCAAACCC,-0.166
7,CGCGGCAC,0.0242
8,AAAATTCC,0.0775
9,GTTTCCCA,0.128
10,GATGCGAC,-0.146
11,CACGAAGC,0.013
12,ACTTGCCT,-0.106
13,GCTCAACA,-0.0503
14,AAGCGACT,0.00285
15,ATGACAAC,0.189
16,GAAACGTA,0.162
17,CCGAGGAC,-0.141
18,GAACAGCA,0.104
19,ACAGTCGT,0.0107
20,GTGGCGAA,-0.0471
21,AGGACCTC,-0.0741
22,GGTTGTCA,0.078
23,AAGACTCT,0.0514
24,TGCATAAA,0.0703
25,CCGACTTC,-0.0421

# Reprinted at random: 7 records from the list, in no set order.
row,Sequence,PBM E-score
6,GCAAACCC,-0.166
4,AAACGGGT,0.019
8,AAAATTCC,0.0775
14,AAGCGACT,0.00285
22,GGTTGTCA,0.078
7,CGCGGCAC,0.0242
17,CCGAGGAC,-0.141

# Remaining list, next part:

row,Sequence,PBM E-score
1,ACGGGGTA,-0.251
2,AGTTCCGA,0.045
3,ACTTCGTC,-0.0104
4,GCATTTGA,0.0726
5,CTACCACA,-0.0927
6,CATGGCGA,0.00993
7,ATGTTGGG,-0.109
8,ATATGACA,0.166
9,CCACTCAA,0.115
10,CCGCCTGC,-0.278
11,ATTCGACA,-0.0426
12,AGGACGGC,-0.178
13,AGCCGCGG,-0.0639
14,ACACCTTC,0.0874
15,GCTAGGCA,-0.242
16,GGGGGAGA,-0.121
17,CCAGCTGA,0.0871
18,CATAAAAC,0.0691
19,AGGAAGGA,-0.218
20,CGGGTTCC,-0.151
21,AACTGAAC,-0.0163
22,AACCCTTA,0.224
23,TACAGCAA,0.0775
24,CTACGCAG,-0.0993
25,CGTCTGGC,-0.0378

row,Sequence,PBM E-score
1,AAACGGGG,-0.058
2,ATACACAA,0.136
3,CCGGCAGC,-0.241
4,AGGCTCCG,0.0437
5,ATCGCAGC,-0.0499
6,GCTGTAAA,-0.00901
7,TCACAACA,0.138
8,GAATTTAA,0.118
9,GTCGCCAA,-0.0746
10,GATATTGA,0.15
11,TCGAGTCA,-0.126
12,TAGAAACA,0.105
13,AGGTACAG,-0.00238
14,CATCTGTA,0.0164
15,AGTGGCTC,-0.0709
16,AAGAACTA,0.115
17,CACCAACA,-0.0286
18,CGTCTTAG,-0.335
19,AACTCAGG,-0.0637
20,CGCTGTAG,-0.0649
21,ATAGCAGG,-0.0116
22,ACGCGGAG,-0.0326
23,CGGTCCCC,-0.316
24,GACCAGAC,-0.179
25,GGGCCGTA,-0.0817

row,Sequence,PBM E-score
1,AGGAGATA,0.001
2,GCCTCTGA,-0.174
3,AAGAGTCC,-0.24
4,ATTTAGGA,0.0424
5,CAGGCACC,-0.307
6,ATAATGAA,0.25
7,AATAATTC,0.263
8,ATCCCTGC,-0.206
9,AAATTAGG,0.196
10,AGGACTAC,-0.137
11,ACCCAGAA,0.158
12,CCGCTCTC,-0.26
13,ACATGCCA,0.0349
14,CTCGTCAG,-0.00282
15,TGACGTAA,0.368
16,AGGATTTG,0.0994
17,CGCCTTGC,-0.108
18,ACAAAAGA,0.169
19,GAGCGGTA,-0.123
20,CTTCGTCC,-0.13
21,AACCATCT,-0.0615
22,AGTTTAGG,-0.142
23,CACGATGC,-0.221
24,ATGGGTAC,0.028
25,TAAAGCGA,0.15

row,Sequence,PBM E-score
1,TAAATTTA,0.26
2,CGATAATA,0.131
3,GATCACTA,-0.0326
4,AACGTCCG,-0.0404
5,TCTTGTCA,-0.0704
6,CGTCCGTC,-0.228
7,AGTCCGCA,-0.106
8,CACTCCCA,-0.0497
9,AACTAAAA,0.148
10,AAACTACG,0.0264
11,TGGTGTAA,0.0619
12,ATTACAAT,0.125
13,ATTCGTCG,0.0261
14,AACGTATA,0.222
15,CGCATGAG,-0.114
16,GGACTACA,-0.0458
17,GCTGATAA,0.044
18,CGTTCGAA,0.253
19,AATGCAGA,0.0589
20,CCCCTCGC,-0.261
21,CATAGATC,-0.0584
22,CGGAAAAC,0.101
23,GATCACCA,0.00924
24,ACGCAACA,0.0884
25,CACCAGCA,-0.0503

row,Sequence,PBM E-score
1,CTCAGCAC,-0.065
2,ATGGCTGG,-0.123
3,ACATCCGT,0.058
4,ATCAAGGC,0.00014
5,CCGGGGTC,-0.238
6,CCTTCGCA,-0.193
7,GTGGAGAA,0.0437
8,TACGCGTA,0.0111
9,GTGATGCA,0.0888
10,GTTCCCTA,-0.14
11,ACTACGAA,0.099
12,GCTACCTA,0.0412
13,AAACGGCC,-0.106
14,CGGGTTGA,-0.139
15,CCTGGAAA,-0.00843
16,ATTTAGTG,0.204
17,AGAGTCTC,-0.0727
18,CCGCAATC,0.0307
19,AGGGGATA,-0.0149
20,CCTTAACA,-0.014
21,ACGGTTAC,0.0173
22,ATAGCACA,0.0106
23,CTTGGGAC,-0.238
24,CGTAAACG,-0.134
25,CTACTCCC,-0.0178

row,Sequence,PBM E-score
1,ATGATATA,0.167
2,AGGTGTAT,0.209
3,ATACAAAT,0.173
4,GCCCCCGA,-0.324
5,ATTTCTTA,0.155
6,ACTGTTGG,-0.122
7,AGACGAAT,0.0472
8,AAGCATCG,-0.0188
9,ATCTTCCG,0.0919
10,ACCGATCT,0.0212
11,CGATGAAG,0.012
12,TAATAGCA,0.0467
13,TAATGCAA,0.0323
14,ATCTCTCC,-0.0209
15,AAGACGAA,0.153
16,CAAATATG,0.131
17,CTAACCAG,0.0215
18,CCCTTTAG,-0.145
19,CTACTAGA,0.0578
20,CAGCGCTG,0.0656
21,CCGTAGGA,-0.138
22,GATCAATC,-0.0277
